# Library screening results

The values are deposited in ChEMBL (CHEMBL3988442, “University of Dundee, Small-Polar-MMV Screening Library” (2021)).

A: 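Whole-cell assay for inhibitors of Mycobacterium tuberculosis growth, labelled Cornell in the record; the read-out is not stated. The concentration is filed as 10 mM, unlikely as a test dose, so the dose is not known. Higher means stronger inhibition (inferred from two other growth screens of the library). About 53,000 compounds were tested under these conditions; 1.7% (about 900) showed 50% or more at least once.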
B: 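Assay on Mycobacterium tuberculosis, filed only as a heat shock assay from Cornell; the read-out is not stated. The concentration is filed as 10 mM, unlikely as a test dose, so the dose is not known. Higher reads as stronger inhibition (inferred: compounds with an IC50 in retests scored well above the rest). Of about 69,000 compounds tested this way, about 930 (1.4%) reached 50% or more in at least one test.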

Each number is a percent effect as filed. How 0% and 100% were set is not recorded. Most values in the screen are low, and negative values occur. This is an unselected part of the compounds tested. A dash means the value is not listed here; it may have been measured.

| Compound | A | B |
|---|---|---|
| `O=C(Cc1ccccc1)N1CCN(CC(O)c2ccc(F)cc2)CC1` (stereo not drawn) | - | -14.01% |
| `CCC(C)NC(=O)CCNC(=O)Nc1ccc(-n2cncn2)c(F)c1` (stereo not drawn) | - | 7.508% |
| `CCC(=O)Nc1ccc(OCC(=O)N(C)C(C)c2ccon2)cc1` (stereo not drawn) | 3.347% | -18.6% |
| `[H][C@@]12CN(Cc3ccccc3)C[C@]1([H])N(CCCN1CCOCC1)C(=O)O2` | 16.79% | -4.488% |
| `COCC1CN(Cc2ccc(OC)cc2)Cc2nnn(CC3CC3)c21.O=C(O)C(F)(F)F` (stereo not drawn) | 34.08% | -41.07% |
| `CC(C)c1noc(C(C)N2CCN(CCc3ccncc3)CC2)n1` (stereo not drawn) | 23.78% | 0.9656% |
| `COC(C)c1cccc(NCc2cccs2)c1` (stereo not drawn) | 11.92% | -12.4% |
| `CS(=O)(=O)CCOc1nc(-c2ccccc2Cl)no1` | 17.44% | -17.49% |
| `Cc1cc(-c2cccc(C(=O)O)c2)nc(C2CCN(C(C)C)CC2)n1` | 10.33% | 3.255% |
| `CC(C)OCCC1CCCCN1S(=O)(=O)c1cnn(C)c1` (stereo not drawn) | 24.64% | -16.18% |
| `CC1(c2ccccc2)CCC(=O)N(CC2(N3CCOCC3)CCCC2)C1` (stereo not drawn) | 6.175% | 4.675% |
| `CSc1ccc(CNC(c2ccccc2)c2nccn2C)cc1` (stereo not drawn) | 34.81% | 105.2% |
| `CC(C)c1nn(C)c(N(C)C)c1CNC1CCN(C2CC2)CC1.Cl` | 42.5% | -27.34% |
| `COc1ccccc1C1(CNc2nnc(C)c(C)c2C#N)CCCC1` | 86.76% | 10.41% |
| `CC(=O)N1CCC(CSCc2ccco2)CC1` | 7.881% | -7.203% |
| `[H][C@]12CC[C@]([H])(CN(Cc3ccccc3)C1)N(C(=O)N1CCN(C)CC1)C2` | - | -15.98% |
| `Cc1ccc(CN(C)C(=O)CN2CCCC2Cn2cccn2)o1` (stereo not drawn) | - | 19.39% |
| `Cc1noc(CCCC(=O)NC(C)c2nnc3n2CCCCC3)n1` (stereo not drawn) | - | 13.72% |
| `Cc1cccc(COC2COC3(CCN(S(C)(=O)=O)CC3)C2)n1.O=C(O)C(F)(F)F` (stereo not drawn) | -25.21% | -1.893% |
| `CC(C(=O)N1CCCC1)N1CCCN(C(=O)Oc2ccccc2)CC1` (stereo not drawn) | -19.2% | -0.7589% |
| `CSc1ccsc1C(=O)NS(=O)(=O)c1cccc(C#N)c1` | -27.43% | -4.759% |
| `[H][C@@]12C[C@H](NC(=O)c3cc(C)ccc3NC)CN1CCN(C)C2` | 22.62% | 10.69% |
| `Cc1ccc(CCNC(=O)NC2CCN(CC(F)(F)F)C2=O)cn1` (stereo not drawn) | - | -25.03% |
| `Cc1noc(C(C)NC(=O)[C@@H](C)NC(=O)OC(C)(C)C)n1` (stereo partly drawn) | 27% | 4.198% |
| `CC(NC(=O)Cc1cccs1)(C(N)=O)c1cccc(Cl)c1` (stereo not drawn) | 9.282% | 12.88% |
| `CC(=O)N1CCC(c2ccnc(Nc3ccc(C)cn3)n2)C1` (stereo not drawn) | -29.18% | -13.71% |
| `O=C1CC(c2cccnc2)c2c(c(C(=O)O)cn2-c2ccc(Cl)cc2)N1` (stereo not drawn) | 40.16% | 37.29% |
| `Cn1ccc(C(=O)NC2CCC23CCN(C(=O)C2CCOCC2)CC3)c1` (stereo not drawn) | 27.49% | -6.695% |
| `COCCO[C@H]1CCN(C(=O)C2CCOCC2)[C@H]1Cc1ccncc1` | - | -14.87% |
| `COc1ccc(CN(CC2CCCO2)c2nc3c(s2)c(C)nn3C)cc1` (stereo not drawn) | 14.79% | -12.27% |
| `Cc1cc(C)nc(N2CCC(c3nnc(CN(C)C)n3C3CC3)CC2)n1` | 24.25% | 4.618% |
| `Cc1nn(C)c(C)c1C(=O)N1CCN(c2ccncc2Cl)CC1` | -17.99% | -5.903% |
| `COc1ccc(C[C@H]2CN(c3cc(OC)ncn3)CC[C@@H]2OC)cc1.O=C(O)C(F)(F)F` | 14.49% | -19.28% |
| `NC(=O)CCCNC(=O)COc1ccccc1C(F)(F)F` | - | -9.12% |
| `Cc1nc(CN2CCC3(CCN(c4cnn(C)c4)C3=O)C2)cs1.O=C(O)C(F)(F)F` (stereo not drawn) | 30.99% | -3.449% |
| `COC(=O)CCC(=O)N1CCc2[nH]nc(-c3ccc(F)c(F)c3)c2C1` | 7.451% | -5.449% |
| `O=C(O)C(F)(F)F.[H][C@@]12OCCN(c3ncccn3)[C@@]1([H])CC[C@H]2OCC1CCOCC1` | -2.783% | 52.27% |
| `Cn1cc(NS(=O)(=O)c2ccc(OC(F)(F)F)cc2)ccc1=O` | -35.35% | 7.367% |
| `Cc1ccc(NC2CCN(C(=O)CCNS(C)(=O)=O)CC2)nn1` | 8.562% | 12.93% |
| `Cc1nc(CN2CCCC(N(C)CC3(O)CCCCC3)C2)no1` (stereo not drawn) | - | -9.685% |
| `Cc1nn(C)c(Cl)c1C1CCCN1CCc1ccccn1` (stereo not drawn) | - | 0.831% |
| `CCN1CCC(CNCc2cc(C)ccc2OC)C1` (stereo not drawn) | -14.33% | -7.783% |
| `O=C(O)C(F)(F)F.O=S(=O)(C1CC1)N1CCc2onc(COc3ccccn3)c2C1` | -39.72% | -30.22% |
| `c1c[nH]c2nc(C3CCNCC3)nc-2c1` | - | -25.99% |
| `CCc1nc(C)c([C@H]2CN(C)C[C@@H]2C(=O)NCc2ccccn2)[nH]1` | -36.84% | -1.992% |
| `CC(C)(C)n1cc(CNC2CCN(C(=O)c3ccco3)CC2)cn1` | -11.63% | -17.27% |
| `CN(C)c1cc(C(=O)N2CCCN(Cc3cscn3)CC2)ccn1` | 16.94% | 13.2% |
| `[H][C@@]12CCN(c3ncccn3)C[C@]1([H])[C@H](C(=O)N1CCN(C)CC1)CCO2` | 22.17% | 22.25% |
| `Cc1nc(O)cc(C2(C)CCCNC2)n1.Cl` (stereo not drawn) | 37.37% | -12.78% |
| `OCC1CCCN1c1cc(NCc2cccc3cccnc23)ncn1` (stereo not drawn) | - | 0.2098% |
| `COCC1CN(C(C)=O)CCN(c2cc(C)ncn2)C1` (stereo not drawn) | -19.98% | 1.607% |
| `Cc1nc(CNC(=O)NC2CCN(c3ncccn3)CC2)cs1` | -46.64% | -2.697% |
| `COc1cccc(C)c1C(=O)N1C[C@@H](CN(C)C)[C@@H](CO)C1` | -23.35% | 20.44% |
| `CC(C)C(=O)N(C)Cc1nc(N2CCCC2)ncc1-c1ccncc1.Cl` | 49.66% | 19.59% |
| `CCc1ccc(S(=O)(=O)Nc2cnccc2C)s1` | 40.24% | 12.42% |

Some entries from above, unchanged:

Compound	A	B
CCC(C)NC(=O)CCNC(=O)Nc1ccc(-n2cncn2)c(F)c1 (stereo not drawn)	-	7.508%
COC(=O)CCC(=O)N1CCc2[nH]nc(-c3ccc(F)c(F)c3)c2C1	7.451%	-5.449%
Cc1cccc(COC2COC3(CCN(S(C)(=O)=O)CC3)C2)n1.O=C(O)C(F)(F)F (stereo not drawn)	-25.21%	-1.893%
Cc1nc(CN2CCCC(N(C)CC3(O)CCCCC3)C2)no1 (stereo not drawn)	-	-9.685%
Cc1noc(CCCC(=O)NC(C)c2nnc3n2CCCCC3)n1 (stereo not drawn)	-	13.72%
COc1ccc(CN(CC2CCCO2)c2nc3c(s2)c(C)nn3C)cc1 (stereo not drawn)	14.79%	-12.27%
Cc1cc(-c2cccc(C(=O)O)c2)nc(C2CCN(C(C)C)CC2)n1	10.33%	3.255%